{"source": "PubChem BioAssay AID504793 | Drosophila RNAi Screening Center – 2011", "test": "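Whole-genome screen for parts of the DNA damage checkpoint at G2/M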 (primary screen)", "cells": "Drosophila S2R+ cells", "reagents": "long dsRNA against Drosophila genes, about 0.25 µg dsRNA per well", "duration": "4 days of dsRNA, then 4 hours of drug before read-out", "conditions": "doxorubicin 0.5 µM for 4 hours to cause double-strand breaks, in cells also given a low, harmless dose of dsRNA against nbs to sensitise the assay", "detection": "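Per-well count of mitotic cells stained for phospho-histone H3 after doxorubicin exposure, used as mitotic index; counts are raw and not normalised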", "direction": "mitotic cells: higher = more cells in mitosis, weaker G2 arrest", "active means": "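Genes are called active only when high mitotic counts were reproduced with independent dsRNAs and mitosis was checked for delay without damage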", "calls": "active = confirmed in follow-up tests; inactive = not confirmed", "note": "In all, the deposit lists about 23,000 reagents; below is an unselected part of those that have a named target and a result. Of all reagents, 62 (0.27%) got an active call. 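Calls come from follow-up tests whose scores are not deposited, so confirmed genes may have low counts here; counts are not normalised per plate.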 The raw values are shown without normalisation. Unmarked entries are inactive."}
{"target":"CG4281","amplicon":"DRSC18521","mitotic cells, replicate 1":3}
{"target":"CG4281","amplicon":"DRSC28415","mitotic cells, replicate 1":4}
{"target":"CG13631","amplicon":"DRSC23168","mitotic cells, replicate 1":8}
{"target":"CG13631","amplicon":"DRSC28727","mitotic cells, replicate 1":6}
{"target":"CG5024","amplicon":"DRSC15698","mitotic cells, replicate 1":12}
{"target":"CG33966","amplicon":"DRSC08256","mitotic cells, replicate 1":4}
{"target":"CG33966","amplicon":"DRSC25718","mitotic cells, replicate 1":4}
{"target":"CG31789","amplicon":"DRSC01645","mitotic cells, replicate 1":3}
{"target":"CG31789","amplicon":"DRSC25757","mitotic cells, replicate 1":7}

Not a retest: 2 of the entries above.
{"target":"CG31789","amplicon":"DRSC01645","mitotic cells, replicate 1":3}
{"target":"CG31789","amplicon":"DRSC25757","mitotic cells, replicate 1":7}

Additional results follow.
{"target":"CG18048","amplicon":"DRSC12573","mitotic cells, replicate 1":2}
{"target":"CG18048","amplicon":"DRSC29053","mitotic cells, replicate 1":10}
{"target":"CG14410","amplicon":"DRSC19596","mitotic cells, replicate 1":10}
{"target":"uex (unextended)","amplicon":"DRSC20786","mitotic cells, replicate 1":11}
{"target":"uex (unextended)","amplicon":"DRSC27422","mitotic cells, replicate 1":6}
